Results as given in paper PMC3712487.
No constants are given. Whether binding was seen depends on the method and setting. Binding seen in cells or lysates may run through a third protein. Some results given as binding are weak or reduced against the parent protein; the word gives no strength.

Chains of the proteins cited; added tags and fusions are not shown. Residues count along the entry.
UniProt P46527: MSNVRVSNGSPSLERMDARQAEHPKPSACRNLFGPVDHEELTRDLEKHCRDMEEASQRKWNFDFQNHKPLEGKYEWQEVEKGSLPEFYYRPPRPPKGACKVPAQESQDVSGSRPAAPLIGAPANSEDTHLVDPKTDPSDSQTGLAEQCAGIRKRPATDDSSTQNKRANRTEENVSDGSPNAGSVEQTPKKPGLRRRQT
UniProt P28072, residues 35-239: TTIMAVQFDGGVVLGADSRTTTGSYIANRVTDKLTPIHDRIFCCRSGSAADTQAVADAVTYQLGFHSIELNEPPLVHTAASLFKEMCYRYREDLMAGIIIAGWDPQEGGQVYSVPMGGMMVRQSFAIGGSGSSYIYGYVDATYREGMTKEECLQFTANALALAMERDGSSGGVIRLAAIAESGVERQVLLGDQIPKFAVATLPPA
UniProt P25788: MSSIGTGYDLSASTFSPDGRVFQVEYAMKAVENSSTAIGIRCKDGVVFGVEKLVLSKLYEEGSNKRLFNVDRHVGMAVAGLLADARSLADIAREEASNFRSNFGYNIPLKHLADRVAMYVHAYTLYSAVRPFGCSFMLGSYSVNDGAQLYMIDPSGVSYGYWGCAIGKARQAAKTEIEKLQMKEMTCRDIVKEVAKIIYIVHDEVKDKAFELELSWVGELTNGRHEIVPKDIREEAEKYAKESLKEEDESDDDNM

Columns and labels:
[1] = target: p27^Kip1 (endogenous) (human (endogenous in HeLa)) (UniProt P46527); test: co-IP; endogenous proteins; lysate of cells synchronized at G0/G1 (50 mM Hepes-NaOH pH 7.5, 100 mM NaCl, 0.5% Nonidet P40, 2.5 mM EDTA, 10% glycerol); monoclonal anti-β1, anti-p27^Kip1 or anti-GFP (control) with protein G-plus-agarose at 4°C; Western blot
[2] = target: proteasomal β1 subunit (endogenous) (human (endogenous in HeLa)) (UniProt P28072); test: as above

For “proteasomal β1 subunit (endogenous) (from UniProt P28072 35-239)”, the binding [1] was “binds”.

With “p27^Kip1 (endogenous) (from UniProt P46527 1-198)” the binding [2] was “binds”.

“proteasomal α7 subunit (endogenous) (from UniProt P25788 1-255)” was tested, and the binding [2] was “binds”.
